No constants are given. Whether binding was seen depends on the method and setting. Some results given as binding are weak or reduced against the parent protein; the word gives no strength. Where a sequence is shown, tags or fusion partners need not be part of it.

B1: human anti-DLK1 monoclonal antibody 18A5 (antibody, V domains shown)
VH: QVQLVQSGGAVVQPGHSLRLSCEASGFKFKDYGMHWVRQAPGKGLEWLAVISHDGRNKNYADSVKGRLTISRDNSKNTLSFQMNSLRAEDTAVYYCVRDWSYAFDIWGQGTLVTVSS
VL: DIQMTQSPSFLSASVGDRVNITCRASQDISRRLAWYQQKPGKAPKLLIYGAASLQSAVASRFSGSGSGTEFTLTISSLQPEDFANYYCQQIYTTPLTFGGGTKVEIK
notes: Converted from scFv to IgG; also called DLK1-18A5
B2: human anti-DLK1 monoclonal antibody variant 18A5_LS_1A10 (antibody, V domains shown)
VH: QVQLVQSGGAVVQPGHSLRLSCEASGFKFKDYGMHWVRQAPGKGLEWLAVISHDGRNKNYADSVKGRLTISRDNSKNTLSFQMNSLRAEDTAVYYCVRDWSYAFDIWGQGTLVTVSS
VL: DIQMTQSPSSLSASLGDRVTITCRASQGISSALAWYQQKPGKAPKLLIYAASSLQSGVPSRFSGSGSGTDFTLTINSLQPEDFATYYCQQSYTTPLTFGGGTKVEIK
B3: human anti-DLK1 monoclonal antibody variant 18A5_AM_1A12 (antibody, V domains shown)
VH: QVQLVQSGGGVVQPGGSLRLSCAASGFKFKDYGMHWVRQAPGKGLEWLAVISHDGRNKNYADSVKGRLTISRDNSKNTLSFQMNSLRAEDTAVYYCVRDWSYAFDIWGQGTLVTVSS
VL: DIQMTQSPSFLSASVGDRVTITCRASHDISSSLAWYQQKSGKAPKLLIYSASNLKSGVPSRFSGSGSGTDFSLTISSLQPEDFATYYCQQSYTTVLTFGGGTKLEIK
B4: human anti-DLK1 monoclonal antibody 35E2 (antibody, V domains shown)
VH: QVQLVESGGGVVQPGRSLRLSCAASGFTFSSYAMHWVRQAPGKGLEWVAVIYSGGSTYYADSVKGRFTISRDNSKNTLYLQMNSLRAEDTAVYYCAREGSYDVMTYTRIGGYFDYWGQGALVTVSS
VL: DIQMTQSPSSVSASVGDRVTITCRASQGISDWVAWYQQKPGKAPKLLIYAASSLQSGVPSRFSGSGSGTEFSLTISNLQPEDFATYYCQQANSFPLTFGPGTKVEIK
notes: Converted from scFv to IgG

The assay has as its target T1, mouse DLK1 hFc fusion protein (mouse) (UniProt Q09163).
T1 sequence (looked up): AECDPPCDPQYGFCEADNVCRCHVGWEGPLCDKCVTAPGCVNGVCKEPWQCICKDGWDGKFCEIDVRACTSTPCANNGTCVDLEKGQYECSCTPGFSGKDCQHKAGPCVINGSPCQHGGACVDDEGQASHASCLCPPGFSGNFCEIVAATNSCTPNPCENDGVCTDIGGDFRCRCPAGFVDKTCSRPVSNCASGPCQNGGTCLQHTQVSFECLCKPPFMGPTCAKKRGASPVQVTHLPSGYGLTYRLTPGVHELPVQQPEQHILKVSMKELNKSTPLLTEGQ
As to the kind of experiment: ELISA on hFc fusion proteins of human, mouse and monkey DLK1.
B1: the binding entry is “binds”. Turning to B2, the binding entry is recorded as “binds”. With B3 the entry was “binds”; with B4, “binds”.
